Reference: PubChem BioAssay AID602196 (INSERM, 2012)

- Screen: 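Knock-downs that protect lung cancer cells from cisplatin or sensitise them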
- Cell system: human A549 lung cancer cells
- Reagents: siRNA pair against human genes
- Timing: 48 h transfection before cisplatin; time from cisplatin to read-out not stated
- Treatment: cisplatin at a dose killing half of control-siRNA cells; exact dose and duration not given
- Detection: 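Shift in cisplatin death relative to control siRNA, from -50 (all cells die) to +50 (no cells die); siRNAs harmful on their own scored 0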
- Reading the numbers: two-siRNA summed score (-2 to +2): higher = both siRNAs protect from cisplatin killing; -2 means both sensitise; mean protection from cisplatin (shift in death): higher = protection from cisplatin killing
- Hit rule: 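siRNAs harmful alone (LDH or WST-1) get 0; others get +1 for less and -1 for more cisplatin killing; genes are active when the two siRNAs give the same sign, summing to ±2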
- Calls: active = both siRNAs shift cisplatin killing the same way; inactive = no consistent shift, or siRNA harmful alone
Here is one part, drawn at random, of about 23,000 deposited reagents. Over the whole deposit, 455 (2%) got an active call. 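Active includes both protection and sensitisation; some change values fall well beyond the stated -50 to +50 range.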 Further read-outs or replicates are left out here. Not given: the amount of reagent.

With knock-down of LOC339819, the screen gave two-siRNA summed score (-2 to +2) = 0; mean protection from cisplatin (shift in death) (%) = 10.9; inactive. For ZNF8 the deposit lists two-siRNA summed score (-2 to +2) = 0; mean protection from cisplatin (shift in death) (%) = 1.2; inactive. After knock-down of TMEFF2 the results were two-siRNA summed score (-2 to +2) = 0; mean protection from cisplatin (shift in death) (%) = 11.6; inactive. With knock-down of SIVA1, the record shows two-siRNA summed score (-2 to +2) = -1; mean protection from cisplatin (shift in death) (%) = -13.8; inactive. After knock-down of CCIN, the screen gave two-siRNA summed score (-2 to +2) = 1; mean protection from cisplatin (shift in death) (%) = 12.7; inactive. FOLR2 gave two-siRNA summed score (-2 to +2) = 0; mean protection from cisplatin (shift in death) (%) = -2.2; inactive.

After knock-down of LPAL2, the screen gave two-siRNA summed score (-2 to +2) = -1; mean protection from cisplatin (shift in death) (%) = -4.8; inactive. MICU1 scored two-siRNA summed score (-2 to +2) = 1; mean protection from cisplatin (shift in death) (%) = 15.2; inactive.

Copied from the entries so far for reference:
TMEFF2 — two-siRNA summed score (-2 to +2): 0; mean protection from cisplatin (shift in death) (%): 11.6; activity call: inactive
SIVA1 — two-siRNA summed score (-2 to +2): -1; mean protection from cisplatin (shift in death) (%): -13.8; activity call: inactive

Continued:
With knock-down of LOC441157 the results were two-siRNA summed score (-2 to +2) = 0; mean protection from cisplatin (shift in death) (%) = 10.6; inactive. With knock-down of HNRNPDL the results were two-siRNA summed score (-2 to +2) = 0; mean protection from cisplatin (shift in death) (%) = 9.5; inactive. After knock-down of LOC442031, the screen gave two-siRNA summed score (-2 to +2) = 2; mean protection from cisplatin (shift in death) (%) = 30; active. Silencing of CCDC87 came out at: two-siRNA summed score (-2 to +2) = -1; mean protection from cisplatin (shift in death) (%) = -7.2; inactive.
